Results: the supplement of paper PMC8728848
The list shows a part of the results.

Experiments:
Experiment in all cases: glycan array binding signal (z-score within array); higher = stronger binding
Settings in all cases: glycan notation: IUPAC condensed, linker removed
Fuc(a1-2)Gal = biological target: Fuc(a1-2)Gal
Outline: (§1)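 The binding signal is a Z-score computed within each array. Data were drawn from 3228 arrays in the Consortium for Functional Glycomics database, restricted to those with a known protein sequence. Scores were averaged over arrays of the same protein sequence at different concentrations or buffers, and over linkers, and negative values can be taken as non-binding.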

Fuc(a1-2)Gal(b1-3)GalNAc = biological target: Fuc(a1-2)Gal(b1-3)GalNAc
Outline: as §1

[1] = biological target: Fuc(a1-2)Gal(b1-3)GalNAc(a1-3)[Fuc(a1-2)]Gal(b1-4)Glc
Outline: as §1

[2] = biological target: Fuc(a1-2)Gal(b1-3)GalNAc(a1-3)[Fuc(a1-2)]Gal(b1-4)GlcNAc
Outline: as §1

[3] = biological target: Fuc(a1-2)Gal(b1-3)GalNAc(b1-3)Gal
Outline: as §1

[4] = biological target: Fuc(a1-2)Gal(b1-3)GalNAc(b1-3)Gal(a1-4)Gal(b1-4)Glc
Outline: as §1

[5] = biological target: Fuc(a1-2)Gal(b1-3)GalNAc(b1-4)[Neu5Ac(a2-3)]Gal(b1-4)Glc
Outline: as §1

Fuc(a1-2)Gal(b1-3)GlcNAc = biological target: Fuc(a1-2)Gal(b1-3)GlcNAc
Outline: as §1

[6] = biological target: Fuc(a1-2)Gal(b1-3)GlcNAc(b1-2)Man(a1-3)[Fuc(a1-2)Gal(b1-3)GlcNAc(b1-2)Man(a1-6)]Man(b1-4)GlcNAc(b1-4)GlcNAc
Outline: as §1

[7] = biological target: Fuc(a1-2)Gal(b1-3)GlcNAc(b1-2)Man(a1-3)[Fuc(a1-2)Gal(b1-3)GlcNAc(b1-2)Man(a1-6)]Man(b1-4)GlcNAc(b1-4)[Fuc(a1-6)]GlcNAc
Outline: as §1

[8] = biological target: Fuc(a1-2)Gal(b1-3)GlcNAc(b1-3)Gal(b1-4)Glc
Outline: as §1

[9] = biological target: Fuc(a1-2)Gal(b1-3)GlcNAc(b1-3)GalNAc
Outline: as §1

[10] = biological target: Fuc(a1-2)Gal(b1-3)GlcNAc(b1-3)[Fuc(a1-2)Gal(b1-3)GlcNAc(b1-6)]GalNAc
Outline: as §1

[11] = biological target: Fuc(a1-2)Gal(b1-3)GlcNAc(b1-3)[Gal(b1-4)GlcNAc(b1-6)]Gal(b1-4)Glc
Outline: as §1

[12] = biological target: Fuc(a1-2)Gal(b1-3)GlcNAc(b1-3)[Neu5Ac(a2-6)Gal(b1-4)GlcNAc(b1-6)]Gal(b1-4)Glc
Outline: as §1

[13] = biological target: Fuc(a1-2)Gal(b1-3)GlcNAc6S
Outline: as §1

[14] = biological target: Fuc(a1-2)Gal(b1-3)[Fuc(a1-4)]GlcNAc
Outline: as §1

[15] = biological target: Fuc(a1-2)Gal(b1-3)[Fuc(a1-4)]GlcNAc(b1-2)Man(a1-3)[Fuc(a1-2)Gal(b1-3)[Fuc(a1-4)]GlcNAc(b1-2)Man(a1-3)]Man(b1-4)GlcNAc(b1-4)GlcNAc
Outline: as §1

[16] = biological target: Fuc(a1-2)Gal(b1-3)[Fuc(a1-4)]GlcNAc(b1-2)Man(a1-3)[Fuc(a1-2)Gal(b1-3)[Fuc(a1-4)]GlcNAc(b1-2)Man(a1-6)]Man(b1-4)GlcNAc(b1-4)[Fuc(a1-6)]GlcNAc(b1-4)[Fuc(a1-6)]GlcNAc
Outline: as §1

[17] = biological target: Fuc(a1-2)Gal(b1-3)[Fuc(a1-4)]GlcNAc(b1-3)[Fuc(a1-3)[Gal(b1-4)]GlcNAc(b1-6)]Gal(b1-4)Glc
Outline: as §1

[18] = biological target: Fuc(a1-2)Gal(b1-3)[Fuc(a1-4)]GlcNAc(b1-3)[Gal(b1-4)GlcNAc(b1-6)]Gal(b1-4)Glc
Outline: as §1

Fuc(a1-2)Gal(b1-4)Glc = biological target: Fuc(a1-2)Gal(b1-4)Glc
Outline: as §1

Fuc(a1-2)Gal(b1-4)Glc6S = biological target: Fuc(a1-2)Gal(b1-4)Glc6S
Outline: as §1

Fuc(a1-2)Gal(b1-4)GlcNAc = biological target: Fuc(a1-2)Gal(b1-4)GlcNAc
Outline: as §1

[19] = biological target: Fuc(a1-2)Gal(b1-4)GlcNAc(b1-2)Man
Outline: as §1

[20] = biological target: Fuc(a1-2)Gal(b1-4)GlcNAc(b1-2)Man(a1-3)[Fuc(a1-2)Gal(b1-4)GlcNAc(b1-2)Man(a1-6)]Man(b1-4)GlcNAc(b1-4)GlcNAc
Outline: as §1

[21] = biological target: Fuc(a1-2)Gal(b1-4)GlcNAc(b1-2)Man(a1-3)[Fuc(a1-2)Gal(b1-4)GlcNAc(b1-2)Man(a1-6)]Man(b1-4)GlcNAc(b1-4)[Fuc(a1-6)]GlcNAc
Outline: as §1

[22] = biological target: Fuc(a1-2)Gal(b1-4)GlcNAc(b1-2)[Fuc(a1-2)Gal(b1-4)GlcNAc(b1-4)]Man(a1-3)[Fuc(a1-2)Gal(b1-4)GlcNAc(b1-2)Man(a1-6)]Man(b1-4)GlcNAc(b1-4)GlcNAc
Outline: as §1

[23] = biological target: Fuc(a1-2)Gal(b1-4)GlcNAc(b1-3)Gal(b1-4)GlcNAc
Outline: as §1

[24] = biological target: Fuc(a1-2)Gal(b1-4)GlcNAc(b1-3)Gal(b1-4)GlcNAc(b1-2)Man(a1-3)[Fuc(a1-2)Gal(b1-4)GlcNAc(b1-3)Gal(b1-4)GlcNAc(b1-2)Man(a1-6)]Man(b1-4)GlcNAc(b1-4)GlcNAc
Outline: as §1

B1: FimA (Actinomyces oris) (protein)
chain: MHHHHHHSSGVDLGTENLYFQSNAETPNYGNIKTDATGSLVIHKHLTGGGKDIGTPTGTAQNADDKGPAVEGVVFTAYPITDINLKDPAGWDTISNLSRTGVPDSACANPAAPTLGAHQFGTPKVSPATTKEGLATITEMPVQAYLVCETTTPGDIVQKAKPFVVTIPHPNTAAGADGQWIYDVNVYPKNEAIDVDKTIQAQKLNGYGVGSLIKFPVESTAPTLDAKSFYKYFQLKDTLDERLSEVTATDVSLEGTPLQPTDYKVETKQQTVTVTFTAEGLKKIKAAPGKKVSAVFQGKVTKAGNGAITNRAQVISDTLYAEQPPTPETPPTDPENPPTSDEVISRWGDLSIKKVDTHQQGQTKAGLQGAQFQLYKAKNAYANTCSNEKEGAPIAINGQTTLTTDAQGAIDIKGLFISDSIDGADRDNQVNAMERCYVLVETKAPAGYVLPAGNGAATPVKVKAGEETTDNVTVENTKQSVPGLPLTG
Fuc(a1-2)Gal
  glycan array binding signal (z-score): -0.721
Fuc(a1-2)Gal(b1-3)GalNAc
  glycan array binding signal (z-score): -0.446
[1]
  glycan array binding signal (z-score): -0.743
[2]
  glycan array binding signal (z-score): -0.48
[3]
  glycan array binding signal (z-score): 11.8
[4]
  glycan array binding signal (z-score): -0.435
[5]
  glycan array binding signal (z-score): 0.297
Fuc(a1-2)Gal(b1-3)GlcNAc
  glycan array binding signal (z-score): 0.251
[6]
  glycan array binding signal (z-score): -0.109
[7]
  glycan array binding signal (z-score): -0.644
[8]
  glycan array binding signal (z-score): -0.221
[9]
  glycan array binding signal (z-score): -0.927
[10]
  glycan array binding signal (z-score): -0.577
[11]
  glycan array binding signal (z-score): 0.524
[12]
  glycan array binding signal (z-score): -0.347
[13]
  glycan array binding signal (z-score): 0.156
[14]
  glycan array binding signal (z-score): -0.566
[15]
  glycan array binding signal (z-score): 0.211
[16]
  glycan array binding signal (z-score): -0.324
[17]
  glycan array binding signal (z-score): 0.008
[18]
  glycan array binding signal (z-score): -0.483
Fuc(a1-2)Gal(b1-4)Glc
  glycan array binding signal (z-score): -0.719
Fuc(a1-2)Gal(b1-4)Glc6S
  glycan array binding signal (z-score): 0.325
Fuc(a1-2)Gal(b1-4)GlcNAc
  glycan array binding signal (z-score): -0.305
[19]
  glycan array binding signal (z-score): 0.416
[20]
  glycan array binding signal (z-score): -0.105
[21]
  glycan array binding signal (z-score): -0.587
[22]
  glycan array binding signal (z-score): -0.236
[23]
  glycan array binding signal (z-score): -1.06
[24]
  glycan array binding signal (z-score): -0.394
